Assay results from PMC3071830.
No constants are given. Whether binding was seen depends on the method and setting. Binding seen in cells or lysates may run through a third protein. These calls come from enrichment with a bait or labelling near it, and not all partners need be listed.

Amino acid sequences for entries named in this document (tags omitted).
UniProt P61961: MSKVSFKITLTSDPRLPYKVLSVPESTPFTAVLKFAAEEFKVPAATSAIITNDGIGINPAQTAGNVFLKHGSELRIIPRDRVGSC

Target: STrEP-UFM1 (ubiquitin-fold modifier 1 with an N-terminal STrEP-tag) (mouse) (UniProt P61961)
Assay: affinity purification with mass spectrometry; STrEP-UFM1 from transfected MIN6 cells (2 h 10 mg/l cycloheximide) held on STrEP-Tactin beads, lysate in S1 buffer; eluate on SDS-PAGE, Coomassie bands absent from the empty-vector control identified by MALDI TOF/TOF

binding: binds
B1: UBA5; Ubiquitin-like modifier-activating enzyme 5, endogenous (enzyme, UniProt Q8VE47 1-403)
chain: MADSVERLRQRVEELEQELARERTRRSGGDGHCGRTRIQEMSDEVLDSNPYSRLMALKRMGIVSDYKKIRTYAVAIVGVGGVGSVTAEMLTRCGIGKLLLFDYDKVELANMNRLFFQPYQAGLSKVHAAEHTLRNINPDVLFEVHNYNITTVEHFEHFMNRISNGGLEEGQPVDLVLSCVDNFEARMAINTACNELGQTWMESGVSENAVSGHIQLMIPGESACFACAPPLVVASNIDEKTLKREGVCAASLPTTMGVVAGILVQNVLKFLLKFGTVSFYLGYNAMQDFFPTMFMKPNPQCDDKNCRKQQEEYKKRAAALPTQEAEPQEEAEVVHEDNEWGIELVSEVSEEELKNSSGPVPTLPEGITVAYTVPKKTEDSASEVTVEDSGESLEDLMARMKNM
